Results deposited as PubChem BioAssay AID1159584 (Peter MacCallum Cancer Centre, 2016)

Assay: 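Knock-downs that harm CDH1-null cells more than parental MCF10A cells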 (primary screen)
Cells: human MCF10A breast epithelial cells, parental and CDH1-null
Reagents: siRNA against human genes
Detection: 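Cell viability by CellTiter-Glo ATP luminescence, each line scaled to the mean of mock wells across plates, then CDH1-null over parental ratio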
Reading the numbers: CDH1-null / parental viability ratio: higher = CDH1-null cells survive relatively better than parental; CDH1-null viability vs mock: higher = more viable CDH1-null cells; parental viability vs mock: higher = more viable parental cells
The deposit covers about 18,000 reagents; this is an unselected part. Not stated in the record: the amount of reagent, the time to read-out.

| gene | PubChem SID | CDH1-null / parental viability ratio | CDH1-null viability vs mock (fraction of mock) | parental viability vs mock (fraction of mock) |
| --- | --- | --- | --- | --- |
| SERBP1 | SID152153289 | 1 | 0.71 | 0.71 |
| ZCCHC9 | SID134318920 | 0.93 | 0.54 | 0.58 |
| MTMR6 | SID152152422 | 1.39 | 1 | 0.72 |
| RAP2C | SID134314704 | 0.93 | 0.67 | 0.72 |
| WDR5B | SID134317602 | 0.84 | 0.57 | 0.68 |
| CHN2 | SID135620738 | 1.32 | 0.58 | 0.44 |
| ULBP1 | SID152154482 | 1.14 | 0.5 | 0.44 |
| EDEM3 | SID152147169 | 1.11 | 0.91 | 0.82 |
| GRK7 | SID135620854 | 0.99 | 0.75 | 0.76 |
| TMX3 | SID152154433 | 0.97 | 0.98 | 1.01 |
| GABRA3 | SID152154128 | 1.35 | 0.89 | 0.66 |
| GPR158 | SID152154327 | 0.8 | 0.8 | 1 |
| SEC61G | SID152155701 | 0.99 | 0.81 | 0.82 |
| UPK1B | SID134321207 | 1.07 | 0.92 | 0.86 |
| PAX5 | SID134316526 | 0.98 | 0.96 | 0.98 |
| TBX20 | SID135622476 | 1 | 0.77 | 0.77 |
| SLC12A3 | SID134312432 | 0.97 | 0.7 | 0.72 |
| SLC12A6 | SID135621361 | 0.99 | 1.06 | 1.07 |
| MEIS3 | SID135624402 | 0.9 | 0.76 | 0.84 |
| VN1R10P | SID135622816 | 0.83 | 0.76 | 0.92 |
| SCNM1 | SID152153512 | 0.72 | 0.52 | 0.72 |
| FZD6 | SID135621007 | 1.13 | 1.06 | 0.94 |

The list goes on, starting with the last 7 of the part before.
| gene | PubChem SID | CDH1-null / parental viability ratio | CDH1-null viability vs mock (fraction of mock) | parental viability vs mock (fraction of mock) |
| --- | --- | --- | --- | --- |
| TBX20 | SID135622476 | 1 | 0.77 | 0.77 |
| SLC12A3 | SID134312432 | 0.97 | 0.7 | 0.72 |
| SLC12A6 | SID135621361 | 0.99 | 1.06 | 1.07 |
| MEIS3 | SID135624402 | 0.9 | 0.76 | 0.84 |
| VN1R10P | SID135622816 | 0.83 | 0.76 | 0.92 |
| SCNM1 | SID152153512 | 0.72 | 0.52 | 0.72 |
| FZD6 | SID135621007 | 1.13 | 1.06 | 0.94 |
| PRAMEF6 | SID135625179 | 1.08 | 0.95 | 0.88 |
| BCKDHB | SID135621779 | 1.01 | 1 | 0.99 |
| TBPL2 | SID152153834 | 0.79 | 0.63 | 0.8 |
| ABHD14A | SID134324873 | 0.97 | 1.1 | 1.13 |
| FGF4 | SID134310136 | 0.71 | 0.6 | 0.84 |
| HOXA7 | SID152155780 | 1.01 | 0.81 | 0.8 |
| ATG16L2 | SID152151985 | 0.96 | 0.79 | 0.82 |
| ATP6V1C1 | SID152148589 | 0.92 | 0.47 | 0.51 |
| LCA5 | SID135623552 | 1.28 | 0.92 | 0.72 |
| RAB27B | SID134310328 | 0.81 | 0.78 | 0.96 |
| BBS7 | SID134317575 | 1.14 | 0.5 | 0.44 |
| TTC39C | SID152152971 | 0.78 | 0.47 | 0.6 |
| CFAP20DC | SID152154673 | 1.17 | 0.96 | 0.82 |
| SLC7A1 | SID152150393 | 1.28 | 1.13 | 0.88 |
| POLR1E | SID134318278 | 0.8 | 0.72 | 0.9 |
| ANKRD34A | SID135625433 | 0.97 | 0.92 | 0.95 |
| EGFL7 | SID134319698 | 1.42 | 0.64 | 0.45 |
| CDK9 | SID152156235 | 1 | 0.77 | 0.77 |
| FAM53B | SID135624032 | 1.07 | 0.73 | 0.68 |
| DNTTIP2 | SID152146868 | 1.1 | 0.65 | 0.59 |
| PPP3CA | SID152148412 | 1.42 | 0.81 | 0.57 |
| STAG3L1 | SID152148821 | 0.84 | 0.68 | 0.81 |
| ATP6AP1 | SID152153791 | 1.2 | 0.6 | 0.5 |
| TNRC6A | SID152153345 | 1.07 | 0.47 | 0.44 |
| IFT70B | SID152147955 | 1.16 | 0.94 | 0.81 |
| ZNF615 | SID134329706 | 1.22 | 0.9 | 0.74 |
| ZNF266 | SID134325014 | 0.88 | 0.59 | 0.67 |
| CSNK1E | SID56478659 | 0.74 | 0.57 | 0.77 |
| GLTP | SID152155589 | 0.86 | 0.72 | 0.84 |
| MSLNL | SID135624935 | 1.14 | 0.72 | 0.63 |
| CABS1 | SID152151849 | 0.84 | 0.59 | 0.7 |
| TPP1 | SID152153504 | 1.14 | 0.84 | 0.74 |
| ASPRV1 | SID152149839 | 1.16 | 1 | 0.86 |
| IRAK4 | SID134309837 | 0.96 | 0.92 | 0.96 |
| PSMA7 | SID134310318 | 1.44 | 0.62 | 0.43 |
| RGS17 | SID152152156 | 1.06 | 0.76 | 0.72 |
| MAGEA9B | SID135625582 | 1.06 | 1.03 | 0.97 |
| SLC38A5 | SID134312608 | 0.67 | 0.43 | 0.64 |
| ZNF839 | SID152152149 | 0.79 | 0.68 | 0.86 |
| SERPINB12 | SID134313614 | 1 | 0.54 | 0.54 |
| NEK1 | SID152155530 | 0.78 | 0.58 | 0.74 |
| SLC38A8 | SID135624327 | 1.02 | 0.46 | 0.45 |
| MGAT4D | SID135624431 | 0.93 | 0.66 | 0.71 |
| CPA6 | SID135621079 | 1.14 | 0.96 | 0.84 |
| NPIPB15 | SID135625317 | 1.56 | 0.78 | 0.5 |
| C9orf40 | SID135624115 | 0.98 | 0.61 | 0.62 |
